Assay results from publication PMC8008189.
These are yes or no findings as the source states them, for the method shown. Some results given as binding are weak or reduced against the parent protein; the word gives no strength.

Sequences of proteins named here, by UniProt entry; tags and fusion partners are left off. A change or cut given only in a name is not applied to a line headed by its entry.
UniProt Q9UJY4: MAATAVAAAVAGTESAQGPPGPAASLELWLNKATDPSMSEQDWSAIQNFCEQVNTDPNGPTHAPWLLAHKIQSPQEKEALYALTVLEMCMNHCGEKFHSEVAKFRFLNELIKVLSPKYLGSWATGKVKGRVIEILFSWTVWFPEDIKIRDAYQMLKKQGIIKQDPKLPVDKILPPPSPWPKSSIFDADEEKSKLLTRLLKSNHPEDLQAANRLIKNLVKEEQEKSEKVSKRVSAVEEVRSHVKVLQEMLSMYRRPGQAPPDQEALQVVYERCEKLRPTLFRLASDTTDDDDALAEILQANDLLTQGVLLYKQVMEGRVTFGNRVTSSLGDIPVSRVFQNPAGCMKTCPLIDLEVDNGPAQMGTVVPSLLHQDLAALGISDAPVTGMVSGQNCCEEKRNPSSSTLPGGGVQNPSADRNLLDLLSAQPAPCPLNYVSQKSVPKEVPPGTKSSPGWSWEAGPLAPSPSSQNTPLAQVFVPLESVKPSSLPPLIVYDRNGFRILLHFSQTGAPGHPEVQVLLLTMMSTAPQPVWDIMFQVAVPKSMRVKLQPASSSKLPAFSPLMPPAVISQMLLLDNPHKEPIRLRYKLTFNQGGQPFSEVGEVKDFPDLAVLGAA
UniProt P05771: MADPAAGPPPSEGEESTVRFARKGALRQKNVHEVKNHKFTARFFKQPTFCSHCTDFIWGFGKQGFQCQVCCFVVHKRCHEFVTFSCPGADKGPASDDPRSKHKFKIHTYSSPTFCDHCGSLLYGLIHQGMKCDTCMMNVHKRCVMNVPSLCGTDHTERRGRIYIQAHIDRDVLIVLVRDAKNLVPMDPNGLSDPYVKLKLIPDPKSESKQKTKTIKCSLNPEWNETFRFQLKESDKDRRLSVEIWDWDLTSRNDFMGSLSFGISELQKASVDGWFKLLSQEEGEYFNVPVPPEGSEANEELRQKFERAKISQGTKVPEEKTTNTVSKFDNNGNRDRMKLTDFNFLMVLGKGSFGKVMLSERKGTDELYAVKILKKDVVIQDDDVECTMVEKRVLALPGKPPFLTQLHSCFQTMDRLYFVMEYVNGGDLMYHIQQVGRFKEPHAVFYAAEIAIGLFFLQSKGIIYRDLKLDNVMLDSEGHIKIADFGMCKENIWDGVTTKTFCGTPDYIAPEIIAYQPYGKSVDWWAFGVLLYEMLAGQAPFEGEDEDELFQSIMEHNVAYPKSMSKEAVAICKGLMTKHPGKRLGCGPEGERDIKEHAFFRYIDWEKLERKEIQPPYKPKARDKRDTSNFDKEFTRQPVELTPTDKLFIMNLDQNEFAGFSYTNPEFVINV

Biological target: GGA2-PKCβII fusion protein (human) (UniProt Q9UJY4+P05771)
Test: co-purification with immunoblot; GGA2-PKCβII fusion protein purified from HEK 293T cells; the purified material immunoblotted for chaperones

B1: Cdc37 (protein, UniProt Q16543 1-378)
chain: MVDYSVWDHIEVSDDEDETHPNIDTASLFRWRHQARVERMEQFQKEKEELDRGCRECKRKVAECQRKLKELEVAEGGKAELERLQAEAQQLRKEERSWEQKLEEMRKKEKSMPWNVDTLSKDGFSKSMVNTKPEKTEEDSEEVREQKHKTFVEKYEKQIKHFGMLRRWDDSQKYLSDNVHLVCEETANYLVIWCIDLEVEEKCALMEQVAHQTIVMQFILELAKSLKVDPRACFRQFFTKIKTADRQYMEGFNDELEAFKERVRGRAKLRIEKAMKEYEEEERKKRLGPGGLDPVEVYESLPEELQKCFDVKDVQMLQDAISKMDPTDAKYHMQRCIDSGLWVPNSKASEAKEGEEAGPGDPLLEAVPKTGDEKDVSV
binding: binds
